Source: PubChem BioAssay AID1508597 (Cure First, 2020)
Purpose: 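Knock-downs altering ovarian cancer cell survival with or without PARP inhibitor rucaparib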 (primary screen). Cells: human ovarian carcinoma lines grown from tumours: OCI-P5x (papillary serous) and OCI-C5x (clear cell). Reagents: siRNA pool against human genes, 1.25 pmol siRNA per well. Time to read-out: 72 h or 96 h, depending on the cell culture. Challenge: rucaparib 20 µM (about IC30) or vehicle, present until read-out. Rucaparib or vehicle: Rucaparib. Cell line: OCI-C5x (clear cell). Measurement: 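Luminescent ATP-based viability assay read 72 or 96 h after transfection, depending on culture, given as normalised percent viability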. Direction: viability, normalised: higher = more viable cells remaining. Active means: 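a well counts as a hit if its normalised viability is under 80 percent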. Calls: active = viability under 80%; inactive = viability 80% or more.
This is an unselected part of the about 2,100 reagents, in one setting of the screen. 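Calls flag viability under 80% in either arm, not effects specific to rucaparib; the reference for percent is not stated.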 Some reagents were tested in more than one well and are listed for each. Not given: the 100% reference.

gene | technical replicate | viability, normalised (%) | outcome
DCP2 (decapping mRNA 2) | 1 | 46.5 | active
DCP2 (decapping mRNA 2) | 2 | 46.9 | active
DCP2 (decapping mRNA 2) | 3 | 39.4 | active
RLIM (ring finger protein, LIM domain interacting) | 1 | 58.3 | active
RLIM (ring finger protein, LIM domain interacting) | 2 | 50.2 | active
RLIM (ring finger protein, LIM domain interacting) | 3 | 37 | active
CNR2 (cannabinoid receptor 2) | 1 | 49.2 | active
CNR2 (cannabinoid receptor 2) | 2 | 59.5 | active
CNR2 (cannabinoid receptor 2) | 3 | 44.6 | active
RECQL5 (RecQ like helicase 5) | 1 | 104 | inactive
RECQL5 (RecQ like helicase 5) | 1 | 39.6 | active
RECQL5 (RecQ like helicase 5) | 2 | 84.7 | inactive
RECQL5 (RecQ like helicase 5) | 2 | 50.9 | active
RECQL5 (RecQ like helicase 5) | 3 | 102 | inactive
RECQL5 (RecQ like helicase 5) | 3 | 39 | active
ITPK1 (inositol-tetrakisphosphate 1-kinase) | 1 | 51.3 | active
ITPK1 (inositol-tetrakisphosphate 1-kinase) | 2 | 55.3 | active
ITPK1 (inositol-tetrakisphosphate 1-kinase) | 3 | 55.6 | active
HIPK1 (homeodomain interacting protein kinase 1) | 1 | 60.7 | active
HIPK1 (homeodomain interacting protein kinase 1) | 2 | 58.3 | active
HIPK1 (homeodomain interacting protein kinase 1) | 3 | 60.7 | active
PDE6G (phosphodiesterase 6G) | 1 | 65.2 | active
PDE6G (phosphodiesterase 6G) | 2 | 68.3 | active
PDE6G (phosphodiesterase 6G) | 3 | 70.3 | active
CLK2 (CDC like kinase 2) | 1 | 58.1 | active
CLK2 (CDC like kinase 2) | 1 | 58.4 | active
CLK2 (CDC like kinase 2) | 2 | 49.3 | active
CLK2 (CDC like kinase 2) | 2 | 53.4 | active
CLK2 (CDC like kinase 2) | 3 | 61.8 | active
CLK2 (CDC like kinase 2) | 3 | 66.7 | active
DDX56 (DEAD-box helicase 56) | 1 | 51.2 | active
DDX56 (DEAD-box helicase 56) | 2 | 41.3 | active
DDX56 (DEAD-box helicase 56) | 3 | 47.4 | active
CTPS2 (CTP synthase 2) | 1 | 67.8 | active
CTPS2 (CTP synthase 2) | 2 | 50.5 | active
CTPS2 (CTP synthase 2) | 3 | 81.3 | inactive
FXR2 (FMR1 autosomal homolog 2) | 1 | 64.2 | active
FXR2 (FMR1 autosomal homolog 2) | 2 | 59.3 | active
FXR2 (FMR1 autosomal homolog 2) | 3 | 58.4 | active
PARP3 (poly(ADP-ribose) polymerase family member 3) | 1 | 45.6 | active
PARP3 (poly(ADP-ribose) polymerase family member 3) | 1 | 42.7 | active
PARP3 (poly(ADP-ribose) polymerase family member 3) | 2 | 37.7 | active
PARP3 (poly(ADP-ribose) polymerase family member 3) | 2 | 49.6 | active
PARP3 (poly(ADP-ribose) polymerase family member 3) | 3 | 38.2 | active
PARP3 (poly(ADP-ribose) polymerase family member 3) | 3 | 54.8 | active
APP (amyloid beta precursor protein) | 1 | 64.1 | active
APP (amyloid beta precursor protein) | 2 | 50.4 | active
APP (amyloid beta precursor protein) | 3 | 44.3 | active
PIK3R3 (phosphoinositide-3-kinase regulatory subunit 3) | 1 | 63.1 | active
PIK3R3 (phosphoinositide-3-kinase regulatory subunit 3) | 2 | 55.3 | active
PIK3R3 (phosphoinositide-3-kinase regulatory subunit 3) | 3 | 49.7 | active
SLIT2 (slit guidance ligand 2) | 1 | 35 | active
SLIT2 (slit guidance ligand 2) | 2 | 27.1 | active
SLIT2 (slit guidance ligand 2) | 3 | 34.1 | active
DHX33 (DEAH-box helicase 33) | 1 | 95.7 | inactive
DHX33 (DEAH-box helicase 33) | 2 | 80.7 | inactive
DHX33 (DEAH-box helicase 33) | 3 | 67.2 | active
